From PubChem BioAssay AID2685 (National Center for Advancing Translational Sciences (NCATS), 2010)
About 2,100 (0.66%) of roughly 320,000 compounds were called active. Inconclusive results, whose numbers are uncertain, are shown with a selection of clear calls. The call rests on the fitted dose curve; in most records, active means well fitted inhibition curve with a large enough effect in the signal ratio, with a control signal flat (not every such curve was filed as active); inconclusive means small, poorly fitted or top-dose-only effect, or effect the other way, or a change in a side signal; inactive means flat fitted curve, though single readings scatter; the % refers to the signal ratio. Potencies of inconclusive entries are doubtful fits and often do not repeat.

Test: qHTS Assay for Lipid Storage Modulators in Drosophila S3 Cells
Conditions: BODIPY lipid droplet fluorescence, 18-24 h, cells fed with added oleic acid; lipid storage change, negative = inhibition: at 46.1 µM (top of the series) unless noted
Excerpt: NIH Molecular Libraries Probe Production Centers Network [MLPCN] NIH Chemical Genomics Center [NCGC] MLPCN Grant: 1 R03 MH085686-01 Assay Submitter (PI): Beller, Mathias; Max-Planck-Institut fur Biophysikalische Chemie NCGC Assay Overview: Storing lipids as a reservoir for energy or the anabolism of elementary metabolites is a common feature of probably all cells and is conserved from bacteria to humans. The universal cellular lipid storage organelle is the so-called lipid storage droplet (LD). Although ubiquitous, LDs share a simple structure composed of a hydrophobic core that harbors the storage lipids, which is shielded by a droplet-specific phospholipid monolayer to which proteins are attached. The current model of LD biogenesis involves an incorporation of the lipid core into the membrane leaflets of the endoplasmic reticulum (ER) followed by a subsequent budding-like maturation of a LD, which ultimately pinches off. Once released, LD volume can increase by localized lipogenesis or fusion of existing droplet. Storage lipids are re-mobilized enzymatically by lipase activity. Lipase regulation in the adipocyte is heavily studied and involves multiple components including catecholamine signaling, the LD-associated proteins Perilipin and comparative gene identification (CGI-58) and at least two lipases named hormone sensitive lipase (HSL) and adipocyte triglyceride lipase (ATGL). LD regulation outside of the adipocyte is poorly understood and only few components are known. However, there is an urgent need to learn more about ectopic fat depots as mislocalized storage of lipids, for example in the liver or muscle, is an eminent health problem associated with insulin resistance or the metabolic syndrome. We developed a laser-scanning cytometer assay to enable 1,536-well screening and combined the results of the small molecules screen with an RNAi database based on lipid storage.
Triacsin C (Sigma-Aldrich T-4540), an inhibitor of long-chain fatty acyl CoA synthetase that blocks synthesis of triglycerides, was used as a positive control for lipid under-storage. A total of 23 nL of compound solution of different concentrations were transferred to the assay plates using a Kalypsys pin tool equipped with a 1,536-pin array containing 10-nL slotted pins (FP1S10, 0.457-mm diameter, 50.8 mm long; V&P Scientific). One microliter of oleic acid (400 uM) was added, and the plate was lidded with stainless steel rubber gasket lined lids containing pinholes. […] Fluorescence was detected by excitation of the fluorophores with a 488-nm laser on an Acumen Explorer (TTP Lab Tech). The total intensity in channel 2 (500-530 nm) reflected lipid droplet accumulation. Cells were detected using channel 3 (575-640 nm) with 5-um width and 100-um depth filters. The ratio of the number of objects in PMT channel 2 over the number of objects in PMT channel 3 was also calculated. Percent activity was computed relative to an internal control (100% inhibited lipid droplet deposition due to the presence of 20 uM Triacsin C), which was added to 32 wells/plate.
On the % scale 0 is the no-effect control and ±100 the full control effect; potency means the concentration at half of the fitted maximal effect.

| Compound | lipid storage change, negative = inhibition | Potency | outcome |
| --- | --- | --- | --- |
| CCOc1ccc(N(CC(=O)N2CCCC2)S(=O)(=O)c2ccc(Cl)cc2)cc1 | inconclusive: 32.9% | – | – |
| O=C(CSc1ncn[nH]1)Nc1ccc([N+](=O)[O-])cc1Br | inconclusive: -30.8% | – | – |
| CCOC(=O)N1CCN(CCC(=O)Nc2cccc(Cl)c2C)CC1 | inconclusive: 30.6% | – | – |
| O=C(/C=C/Sc1ncn[nH]1)c1ccc(Cl)cc1 | inconclusive: -96.3% | – | – |
| Cc1nc2c3ccccc3nc(NNC(=O)CCC(=O)N3CCCC(C)C3)n2n1 (stereo unspecified) | – | inconclusive: 20.6 µM [activator, single point] | – |
| COc1cccc(CNC(=O)COC(=O)c2nc(Cl)c(Cl)c(Cl)c2Cl)c1 | – | active: 14.6 µM | – |
| CCC1(c2ccc(F)cc2)NC(=O)N(CC(=O)N2CCc3ccccc32)C1=O (stereo unspecified) | inconclusive: 27.2% | – | – |
| Cc1ccc(C2=NN(S(C)(=O)=O)C(c3cccs3)C2)cc1 (stereo unspecified) | inconclusive: -0.736% | – | – |
| Cc1ccc(CSCCNC(=O)c2ccc(Cl)c(S(=O)(=O)N3CCOCC3)c2)cc1 | – | inconclusive: 0.146 µM [falling, full curve, poor fit] | – |
| Cc1ccc(OCCNc2ccc(S(=O)(=O)N3CCCC3)cn2)cc1 | inconclusive: -65.9% | – | – |
| O=C(c1cccs1)N1CCN(c2ccccc2)CC1 | inconclusive: -3.01% | – | – |
| CCOC(=O)Cc1cc(-c2ccc(OC)cc2)nc2ccc3ccccc3c12 | inconclusive: 37.3% | – | – |
| COc1ccc([C@@H]2[C@@H]3C(=O)N(C(C)(C)C)C(=O)[C@@H]3[C@]3(Cc4ccccc4)C(=O)N(c4cccc(C)c4)C(=O)N23)cc1 | – | inconclusive: 0.184 µM [activator, full curve, poor fit] | – |
| Nc1ccc(-c2cnc[nH]2)cc1[N+](=O)[O-] | inconclusive: 10.9% | – | – |
| CCC(C)NC(=O)C(Cc1ccccc1)NS(=O)(=O)c1ccc2c(c1)CCC(=O)N2 (stereo unspecified) | – | active: 20.6 µM | – |
| C/C(=N/NC(=O)c1cc(-c2ccc(Cl)s2)[nH]n1)c1ccco1 | inconclusive: 8.77% | – | – |
| CC(NS(=O)(=O)c1ccc(OCC(=O)NCc2ccccn2)cc1)c1ccccc1 (stereo unspecified) | – | inconclusive: 11.6 µM [falling, single point] | – |
| CC1CCC(C(=O)NNC(=O)c2cc(-c3ccco3)[nH]n2)CC1 (stereo unspecified) | inconclusive: 2.45% | – | – |
| COCCCn1c(SCC(=O)N2CCOCC2)nc2cc(Cl)ccc2c1=O | inconclusive: 50.9% | – | – |
| N/C(=N\OC(=O)c1ccc2ccccc2c1)c1ccccc1Cl | inconclusive: 11.4% | – | – |
| C=CCn1c(COc2cccc(C)c2C)nnc1SCC(=O)N1CCN(c2ccccc2)CC1 | – | inconclusive: 23.1 µM [falling, single point] | – |
| CCc1nn2c(=O)cc(CSCC(=O)Nc3ccccc3Cl)nc2s1 | inconclusive: 193% | – | – |
| COC(=O)c1sc(NC(=O)CSc2nc3cccnc3n2C)nc1C | inconclusive: -133% | – | – |
| Cc1nccn1CC(=O)N/N=C/c1cc(Br)cs1 | inconclusive: 14.8% | – | – |
| O=C(NCc1ccc(Cl)cc1)C(=O)NCC1OCCCN1S(=O)(=O)c1cccs1 (stereo unspecified) | – | inconclusive: 29.1 µM [activator, single point] | – |
| CCC/C=C(\CCC)C(NS(=O)(=O)c1cccc2cccnc12)c1ccc(C(=O)OC)cc1 (stereo unspecified) | inconclusive: -2.94% | – | – |

An excerpt of these results, with each value named.
COc1cccc(CNC(=O)COC(=O)c2nc(Cl)c(Cl)c(Cl)c2Cl)c1
  Potency: active: 14.6 µM
Cc1ccc(OCCNc2ccc(S(=O)(=O)N3CCCC3)cn2)cc1
  lipid storage change, negative = inhibition: inconclusive: -65.9%
O=C(c1cccs1)N1CCN(c2ccccc2)CC1
  lipid storage change, negative = inhibition: inconclusive: -3.01%
COCCCn1c(SCC(=O)N2CCOCC2)nc2cc(Cl)ccc2c1=O
  lipid storage change, negative = inhibition: inconclusive: 50.9%

The list goes on:

| Compound | lipid storage change, negative = inhibition | Potency | outcome |
| --- | --- | --- | --- |
| CCc1nc2cc(C)nn2c2nc3ccccc3n12 | inconclusive: 10.8% | – | – |
| CCN1CCCC1CNC(=O)c1ccc(N2CCCC2=O)cc1 (stereo unspecified) | – | inconclusive: 0.146 µM [falling, full curve, poor fit] | – |
| CCOc1ccc(N2CC(C(=O)NCCN3C(=O)S/C(=C\c4cccnc4)C3=O)CC2=O)cc1 (stereo unspecified) | inconclusive: 27.8% | – | – |
| Cc1ccc(NS(=O)(=O)c2cccc(C(=O)n3ncc(C#N)c3N)c2)c(C)c1 | inconclusive: 41.2% | – | – |
| COc1cc(OC)cc(-c2nc3ccccc3c(=O)n2OC(=O)c2ccccc2C)c1 | – | inconclusive: 23.1 µM [falling, single point] | – |
| CCCS(=O)(=O)c1c(S(=O)(=O)CCC)c2c3ccccc3ccn2c1C(N)=O | inconclusive: 8.84% | – | – |
| CC(=O)c1c(C)[nH]c(C(=O)OCC(=O)Nc2cc(C)on2)c1C | – | inconclusive: 0.517 µM [activator, full curve] | – |
| CC(=O)Nc1ccc2[nH]c3ccccc3c2c1 | inconclusive: 3.33% | – | – |
| O=C(Nc1ccc(F)cc1)C(c1ccccc1)N1CCN(CC(=O)N2CCCC2)CC1 (stereo unspecified) | inconclusive: 0.995% | – | – |
| CC(C)Oc1cccc(C(=O)C2CCCN(C(=O)c3ccoc3)C2)c1 (stereo unspecified) | inconclusive: -3.22% | – | – |
| O=C(O)CCc1nn2c3ccccc3nc2n(CCN2CCCCC2)c1=O | inconclusive: 6.48% | – | – |
| CC(C)Cn1c(CN(C)Cc2ccccc2)nc2c1c(=O)n(C)c(=O)n2C | – | – | inactive [at 46.1 µM] |
| COc1ccc(Cl)cc1S(=O)(=O)N1CCN=C1C | inconclusive: -10.9% | – | – |
| COc1ccc(Cl)cc1NC(=O)CNC(c1ccccc1)c1ccccc1 | – | inconclusive: 0.116 µM [activator, full curve, poor fit] | – |
| Cc1sc2nc(CSC(C)C(=O)NC3(C#N)CCCCC3)[nH]c(=O)c2c1C (stereo unspecified) | inconclusive | – | – |
| COc1ccc(-c2nc(NC(=O)c3c(C)noc3C)sc2C)cc1 | – | inconclusive: 6.51 µM [falling, single point] | – |
| COc1ccc(C2c3ccc4ccccc4c3Oc3ncn(CCN4CCOCC4)c(=N)c32)cc1 (stereo unspecified) | inconclusive: -37% | – | – |
| O=C(COC(=O)c1cc(Cl)ccc1O)NCC1CCCO1 (stereo unspecified) | inconclusive: 12.9% | – | – |
| COc1ccc(/C(N)=N/OC(=O)CSc2ccc(C)cc2)cc1 | – | inconclusive: 2.59 µM [rising, partial curve] | – |
| COc1ccc(-c2nnc(SCC(=O)/C(C#N)=C(\C)N)o2)cc1 | – | inconclusive: 0.82 µM [activator, single point] | – |
| Cc1cc(=O)n2nc(N3CCCC(C(=O)NCc4cccc(Cl)c4)C3)sc2n1 (stereo unspecified) | – | inconclusive: 0.116 µM [activator, full curve, poor fit] | – |
| CCn1cc(C2=NOC(C(=O)Nc3c(C)nn(Cc4ccc(F)cc4)c3C)C2)c(C)n1 (stereo unspecified) | – | inconclusive: 0.092 µM [rising, full curve, poor fit] | – |
| Cc1csc(CNc2ncnc3ccc(-c4ccoc4)cc23)c1 | inconclusive: -66.8% | – | – |
| Cc1cccn2c(=O)c(/C=C(\C#N)C(N)=O)c(N3CCN(c4ccccc4)CC3)nc12 | inconclusive: -78.9% | – | – |
| O=S(=O)(c1ccccc1)N1N=C(c2ccc(O)cc2)CC1c1ccco1 (stereo unspecified) | inconclusive: -90.5% | – | – |
| Cc1cccc(NC(=O)C(=O)NCCCc2ccccc2)c1 | inconclusive: -45.3% | – | – |

Complete entries as entered above:
COc1ccc(/C(N)=N/OC(=O)CSc2ccc(C)cc2)cc1 is listed as Potency: inconclusive: 2.59 µM [rising, partial curve]
Cc1cc(=O)n2nc(N3CCCC(C(=O)NCc4cccc(Cl)c4)C3)sc2n1 (stereo unspecified) is listed as Potency: inconclusive: 0.116 µM [activator, full curve, poor fit]

Additional records follow.

| Compound | lipid storage change, negative = inhibition | Potency | outcome |
| --- | --- | --- | --- |
| COc1ccc(NC(=O)CSc2nnc(Cc3ccccc3)o2)c(OC)c1 | inconclusive: 39.4% | – | – |
| COc1ccc(CCNC(=O)COc2cccc3c2OC(C)(C)C3)cc1OC | inconclusive | – | – |
| O=C(NCCO)C(=O)NCC(c1ccc2c(c1)OCO2)N1CCN(c2ccc(F)cc2)CC1 (stereo unspecified) | inconclusive: 0.359% | – | – |
| O=C(N=Nc1c(O)[nH]c2ccc([N+](=O)[O-])cc12)c1ccccc1Cl | – | inconclusive: 29.1 µM [cytotoxic, single point] | – |
| CC(C)(C)c1c(Cl)c(O)c(-c2ccccc2)c(=O)n1-c1ccccc1 | inconclusive: 5.27% | – | – |
| OCC[C@@H]1C[C@@H](O)[C@H](O)[C@]2(CCc3ccccc3CO2)O1 | – | inconclusive: 29.1 µM [activator, single point] | – |
| O=[N+]([O-])c1ccc(Cl)cc1N1CCOCC1 | – | inconclusive: 3.26 µM [falling, single point] | – |
| OCCN(CCO)c1ccc(C(c2ccc(Cl)cc2)c2ccc(N(CCO)CCO)cc2Cl)c(Cl)c1 | – | inconclusive: 20.6 µM [falling, single point] | – |
| CCCC[C@@H]1CNC(=O)C(=O)N1CCc1cc(C(F)(F)F)cc(C(F)(F)F)c1 | inactive: 0.436% | – | – |
| O=C(Cn1c(=O)cnc2ccccc21)Nc1cccc(S(=O)(=O)N2CCCCC2)c1 | – | inconclusive: 32.6 µM [falling, single point] | – |
| COc1cccc(-c2cc(C(=O)Nc3ccc4c(c3)OCO4)no2)c1 | inconclusive: 47.4% | – | – |
| COc1ccc(CC(=O)O/N=C(\N)Cc2cccc3ccccc23)cc1 | inconclusive: 7.12% | – | – |
| CN(C(=O)c1ccco1)c1nnc(-c2ccc(F)cc2)s1 | – | inconclusive: 6.51 µM [falling, single point] | – |
| Cn1c(=O)n(CCOc2ccc([N+](=O)[O-])cc2)c2ccccc21 | inconclusive: 49.6% | – | – |
| CCS(=O)(=O)N1CCC(C(=O)NCc2ccco2)CC1 | inconclusive: 16.4% | – | – |
| O=c1c2ccccc2nc2n1C(CBr)CS2 (stereo unspecified) | inconclusive: -27.8% | – | – |
| CCOc1ccc(C(=O)COC(=O)c2nc3nccc(C)n3n2)cc1 | – | inconclusive: 18.4 µM [activator, single point] | – |
| COc1ccc(NC(=O)c2c(C)cc(=O)oc2C)c(OC)c1 | inconclusive: 8.12% | – | – |
| O=C(COC(=O)/C=C/c1cccc(Br)c1)NCCc1ccccc1 | inconclusive: 35.5% | – | – |
| O=[N+]([O-])/C=C/c1ccc2c(ccn2Cc2ccccc2)c1 | – | inconclusive: 11.6 µM [cytotoxic, partial curve] | – |
| CCc1ccc(C2=NN(c3ccc(S(N)(=O)=O)cc3)C(c3ccc(F)cc3)C2)cc1 (stereo unspecified) | inconclusive: -22.2% | – | – |
| O=C(c1cccs1)N1CCN(c2ccc(Cl)cc2)CC1 | – | inconclusive: 7.31 µM [activator, partial curve] | – |
| O=C(Nc1ccc(N2CCCC2)c(Cl)c1)c1ccc([N+](=O)[O-])cc1 | inconclusive: -2.85% | – | – |
| CCN(CC)S(=O)(=O)c1ccc(=O)n(CC(=O)N2CCCc3cc(C)ccc32)c1 | inconclusive: -40.9% | – | – |
